Measured values published in publication doi:10.1101/361097.

Key:
Assay in all cases: D-loop assay
[1] = biological target: RecA-E96D E97D (Escherichia coli) (UniProt P0A7G6); details: 3 mM ATP, 10 mM MgCl2, pRS306 5 nM, higher D-loop activity than WT
[2] = biological target: RecA-K250R K251R (Escherichia coli) (UniProt P0A7G6); details: 3 mM ATP, 10 mM MgCl2, pRS306 5 nM, higher D-loop activity than WT
[3] = biological target: RecA-K250N K251N (Escherichia coli) (UniProt P0A7G6); details: 3 mM ATP, 10 mM MgCl2, pRS306 5 nM, lower D-loop activity than WT
[4] = biological target: RecA-WT (Escherichia coli) (UniProt P0A7G6); details: 3 mM ATP, 10 mM MgCl2, pRS306 5 nM, strand exchange read-out

“AAAAGGCCTCTAGGTTCCTTTGTTACTTCTTCTGCCGCCTGCTTCAAACCGCTAACAATACCTGGGCCCACCACACCGTGTGCATTCGTA [D-loop 90-mer ssDNA]”: binds [1]; binds [2]; binds more weakly [3]. “AAAAGGCCTCTAGGTTCCTTTGTTACTTCTTCTGCCGCCTGCTTCAAACCGCTAACAATACCTGGGCCCACCACACCGTGTGCATTCGTA [D-loop 90-mer ssDNA]”: binds [4].

The exact form of at least one protein or probe is not confirmed. For some of these results: A weaker result is weaker than the reference pair of the same experiment. At least one verdict rests on a figure or table, not on a statement of the authors.
